Reference: article PMC7813835, “Structure of SRSF1 RRM1 bound to RNA reveals an unexpected bimodal mode of interaction and explains its involvement in SMN1 exon7 splicing”

Sequences of proteins named here, by UniProt entry; tags and fusion partners are left off. Residues count along the entry.
UniProt Q07955, 1-97 K48A: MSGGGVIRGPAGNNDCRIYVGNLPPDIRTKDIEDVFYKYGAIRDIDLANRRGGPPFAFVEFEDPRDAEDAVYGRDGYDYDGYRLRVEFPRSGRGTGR
UniProt Q07955, 1-97 F56A: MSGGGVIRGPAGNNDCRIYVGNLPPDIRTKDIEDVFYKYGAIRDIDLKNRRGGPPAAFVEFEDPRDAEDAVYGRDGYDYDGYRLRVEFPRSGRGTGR
UniProt Q07955, 1-97 R17A: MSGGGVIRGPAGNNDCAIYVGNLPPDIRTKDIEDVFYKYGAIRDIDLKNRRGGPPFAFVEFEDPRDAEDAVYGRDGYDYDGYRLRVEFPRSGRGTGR
UniProt Q07955, 1-97 F58A: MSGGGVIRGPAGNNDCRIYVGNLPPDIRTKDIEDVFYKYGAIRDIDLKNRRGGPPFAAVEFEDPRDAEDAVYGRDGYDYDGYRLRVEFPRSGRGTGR
UniProt Q07955, 1-97 Y19A: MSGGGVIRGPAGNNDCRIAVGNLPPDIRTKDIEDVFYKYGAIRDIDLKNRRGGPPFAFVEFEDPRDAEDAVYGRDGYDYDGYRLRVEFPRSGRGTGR

Tests used:
Test in all cases: NMR
SRSF1 RRM1 K48A (human) = SRSF1 RRM1 K48A (human) (UniProt Q07955); details: text says RNA, legend ssDNA; NMR buffer: 50 mM L-Glu, 50 mM L-Arg, 0.05% beta-mercaptoethanol, 20 mM Na2HPO4 pH 7 (RRM1+2: plus 150 mM KCl, 1.5 mM MgCl2, 0.2 mM EDTA); NMR and ITC at 40 C; recombinant protein; residues 1-97; protein details: N-terminal GB1-6xHis; single-stranded DNA
SRSF1 RRM1 F56A (human) = SRSF1 RRM1 F56A (human) (UniProt Q07955); details: no perturbation, text says RNA, legend ssDNA; NMR buffer: 50 mM L-Glu, 50 mM L-Arg, 0.05% beta-mercaptoethanol, 20 mM Na2HPO4 pH 7 (RRM1+2: plus 150 mM KCl, 1.5 mM MgCl2, 0.2 mM EDTA); NMR and ITC at 40 C; recombinant protein; residues 1-97; protein details: N-terminal GB1-6xHis; single-stranded DNA
SRSF1 RRM1 R17A (human) = SRSF1 RRM1 R17A (human) (UniProt Q07955); details: text says RNA, legend ssDNA; NMR buffer: 50 mM L-Glu, 50 mM L-Arg, 0.05% beta-mercaptoethanol, 20 mM Na2HPO4 pH 7 (RRM1+2: plus 150 mM KCl, 1.5 mM MgCl2, 0.2 mM EDTA); NMR and ITC at 40 C; recombinant protein; residues 1-97; protein details: N-terminal GB1-6xHis; single-stranded DNA
SRSF1 RRM1 F58A (human) = SRSF1 RRM1 F58A (human) (UniProt Q07955); details: no perturbation, text says RNA, legend ssDNA; NMR buffer: 50 mM L-Glu, 50 mM L-Arg, 0.05% beta-mercaptoethanol, 20 mM Na2HPO4 pH 7 (RRM1+2: plus 150 mM KCl, 1.5 mM MgCl2, 0.2 mM EDTA); NMR and ITC at 40 C; recombinant protein; residues 1-97; protein details: N-terminal GB1-6xHis; single-stranded DNA
SRSF1 RRM1 Y19A (human) = SRSF1 RRM1 Y19A (human) (UniProt Q07955); details: no perturbation, text says RNA, legend ssDNA; NMR buffer: 50 mM L-Glu, 50 mM L-Arg, 0.05% beta-mercaptoethanol, 20 mM Na2HPO4 pH 7 (RRM1+2: plus 150 mM KCl, 1.5 mM MgCl2, 0.2 mM EDTA); NMR and ITC at 40 C; recombinant protein; residues 1-97; protein details: N-terminal GB1-6xHis; single-stranded DNA

AACAAA [AACAAA ssDNA]: binds more weakly (SRSF1 RRM1 K48A (human)); no binding (SRSF1 RRM1 F56A (human)); binds more weakly (SRSF1 RRM1 R17A (human)). AACAAA [AACAAA ssDNA]: no binding (SRSF1 RRM1 F58A (human)); no binding (SRSF1 RRM1 Y19A (human)).

For some assays here: A negative result means that nothing was seen under these conditions. At least one verdict was read from the data and is not stated in words by the source. For some assays here: The exact form of at least one protein or probe is not confirmed. For some assays here: The comparison behind a weaker result is the experiment's own reference, which may not be listed here.
